Measurements as given in PubChem BioAssay AID504467 (National Center for Advancing Translational Sciences (NCATS), 2011).
The campaign covered roughly 330,000 compounds. About 7,700 (2.3%) were called active. Inconclusive results, whose numbers are uncertain, are shown with a selection of clear calls. The call rests on the fitted dose curve; in most records, active means well fitted inhibition curve with a large enough effect; inconclusive means small, poorly fitted or top-dose-only effect, or effect the other way; inactive means flat fitted curve, though single readings scatter. Potencies beside an inconclusive call are fits to weak or partial responses and may not hold up. Residues, ends and D or L forms follow the SMILES beside them. *: point of attachment. Cbz = O=C(OCc1ccccc1)*

Assay: qHTS screen for small molecules that inhibit ELG1-dependent DNA repair in human embryonic kidney (HEK293T) cells expressing luciferase-tagged ELG1; further: nearly all actives have a fitted effect of over 55% in size
Details: HEK293T ELG1-luciferase reporter, luminescence, 16 h, DNA damage induced by 5-fluorouridine; activity change, negative = inhibition: at 46.1 µM (top of the series)
Procedure, shortened: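 Quantitative HTS, concentration-response format. 2,000 cells/well co-treated with 5-fluorouridine and compound, 16 hr in 5% CO2 at 37 °C; ONE-Glo luminescence read after 30 min.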
On the % scale 0 is the no-effect control and ±100 the full control effect; potency means the concentration at half of the fitted maximal effect.

SMILES	Potency	activity change, negative = inhibition
C=CCN1C(=O)C(=O)N(CC(=O)c2ccc3c(c2)CCCC3)C1=O	inconclusive: 18.3 µM [activator, partial curve, poor fit]	
CCc1n[nH]c(=S)n1/N=C/c1ccc(N(CC)CC)cc1	inconclusive: 18.3 µM [inhibitor, single point]	
O=C(c1cnn2ccccc12)N1CCc2ccccc21	inconclusive: 4.11 µM [activator, full curve]	
Cc1cccc(NC(=S)N(CCCN(C)C)Cc2cc3cc4c(cc3[nH]c2=O)OCO4)c1	inconclusive: 29.1 µM [inhibitor, single point]	
Cc1nc(NC(=O)c2ccccc2)sc1Cc1ccc2c(c1)OCO2		inactive: -13.7%
Cc1ccccc1NC(=O)C(C)OC(=O)C1CC(=O)N(Cc2ccco2)C1 (centres undefined)		inactive: 14.2%
O=C(c1ccc2ncsc2c1)N1CCN(c2ccccc2Cl)CC1	inconclusive: 14.6 µM [activator, partial curve]	
COc1ccc(S(=O)(=O)n2cccc2)cc1OC		inactive: 13.8%
C[C@H](CO)N1C[C@H](C)[C@@H](CN(C)C)Oc2c(NC(=O)CCCCCC(=O)Nc3ccccc3N)cccc2C1=O		inactive: -7.53%
O=C(Nc1ccc(S(=O)(=O)N2CCOCC2)cc1)c1ccc(Cl)s1	inconclusive: 25.9 µM [inhibitor, single point]	
COc1ccc(Cl)cc1NC(=S)NC(=O)c1ccco1	inconclusive: 23.1 µM [activator, partial curve, poor fit]	
CN(Cc1ccccc1)C(=O)c1ccccc1N(C)S(=O)(=O)c1ccccc1		inactive: -8.02%
CCOC(=O)C1CCCN(C(=O)CCn2nnnc2CN2CCOCC2)C1 (centres undefined)		inactive: 6.78%
Cc1ccccc1NC(=O)c1cccc(C(=O)Nc2ccccc2C)n1	inconclusive: 29.1 µM [inhibitor, single point]	
Cn1c(=O)c2c(nc(NCCO)n2CCc2ccccc2)n(C)c1=O	inconclusive: 16.4 µM [inhibitor, partial curve]	
O=C(c1ccccc1)N1CCN(c2ccc(NCc3ccc4c(c3)OCO4)cc2)CC1	inconclusive: 20.6 µM [inhibitor, single point]	
O=C(Nc1nnc(COc2ccccc2F)s1)Nc1ccccc1F		inactive: 0.0186%
COc1ccccc1C(=O)n1nc(-c2cccnc2)nc1N	inconclusive: 23.1 µM [activator, partial curve, poor fit]	
COc1cc([N+](=O)[O-])cc(/C=N/NC(=O)c2cccnc2)c1O	inconclusive: 16.4 µM [inhibitor, single point]	
Cc1ccccc1-c1nc(CN2CCC(C(=O)NCCC3=CCCCC3)CC2)c(C)o1	inconclusive: 14.6 µM [inhibitor, partial curve]	
O=C(NCC(=O)N(c1ccc(F)cc1)C(C(=O)NCC1CCCO1)c1ccccc1)c1ccco1 (centres undefined)		inactive: -10.6%
O=C(/C=C/c1ccc(F)cc1)N1CCCc2ccccc21	inconclusive: 29.1 µM [activator, single point]	
COc1ccc(C)cc1NC(=O)CN1CCN(c2ccccc2F)CC1	inconclusive: 14.6 µM [inhibitor, single point]	

A draw from above in order of length of the SMILES, smallest number first:
SMILES	Potency	activity change, negative = inhibition
O=C(/C=C/c1ccc(F)cc1)N1CCCc2ccccc21	inconclusive: 29.1 µM [activator, single point]	
O=C(Nc1ccc(S(=O)(=O)N2CCOCC2)cc1)c1ccc(Cl)s1	inconclusive: 25.9 µM [inhibitor, single point]	
O=C(NCC(=O)N(c1ccc(F)cc1)C(C(=O)NCC1CCCO1)c1ccccc1)c1ccco1 (centres undefined)		inactive: -10.6%

More compounds

SMILES	Potency	activity change, negative = inhibition
CC(C)C[C@H](CO)Nc1nc(Nc2cccc(Cl)c2)c2ncn(C(C)C)c2n1		inactive: 0%
CCC1(C)Cc2c(sc3nnn(CC(=O)Nc4ccccc4C)c(=O)c23)CO1 (centres undefined)	active: 10.3 µM	
COc1ccc(C(=O)Nc2ccc(S(=O)(=O)NC(C)(C)C)cc2)cc1[N+](=O)[O-]	inconclusive: 20.6 µM [inhibitor, single point]	
COc1ccc(CCNS(=O)(=O)c2ccc3c(c2)NC(=O)C(C)S3)cc1OC (centres undefined)		inactive: -28.4%
O=C1NC(Cc2ccccc2)c2nc3cc(F)ccc3c(=O)n2-c2ccccc21 (centres undefined)	inconclusive: 25.9 µM [activator, single point]	
COc1ccccc1N(C)S(=O)(=O)c1ccc(C(=O)OCC(=O)c2c[nH]c3ccccc23)cc1	inconclusive: 16.4 µM [inhibitor, partial curve, poor fit]	
COc1ccc(-c2ccc(-c3noc(-c4ccco4)n3)c(OC)n2)cc1	inconclusive: 5.8 µM [activator, full curve, poor fit]	
C=CCOC(=O)/C(=C\c1ccccc1)NC(=O)c1ccc(C)cc1	inconclusive: 16.4 µM [activator, single point]	
Cc1cc(=O)oc2cc(OCC(=O)Nc3nccs3)ccc12	inconclusive: 5.8 µM [activator, partial curve]	
Cc1ccc(C(=O)/C=C/C(=O)c2ccc(C)cc2)cc1	inconclusive: 23.1 µM [activator, partial curve]	
CC1CC(CC(C)C(=O)Nc2nncs2)C(=O)O1 (centres undefined)		inactive: 12.9%
COC(=O)c1ccc(C)c(NC(=O)C(CCSC)NC(=O)c2cc(OC)c(OC)c(OC)c2)c1 (centres undefined)	inconclusive: 9.2 µM [inhibitor, partial curve]	
CSc1ncc(Cl)c(C(=O)Nc2ccc(NC(C)=O)cc2)n1		inactive: -2.78%
COC(=O)C1CCCN1C(=O)C1CCCN1C(=O)CNC(=O)OCc1ccccc1 (stereo not drawn) (Cbz-Gly-Pro-Pro-OMe; configuration not given here)	inconclusive: 18.4 µM [inhibitor, single point]	
COc1cc(OC)c(C(=O)NC2CCCc3ccccc32)cc1OC (centres undefined)	inconclusive: 18.3 µM [inhibitor, single point]	
O=C(Cn1nc2sc3ccccc3n2c(=O)c1=O)c1ccc(Cl)cc1		inactive: 26%
COc1ccc(S(=O)(=O)N2CCOCC2)cc1NC(=O)Cc1ccsc1		inactive: 1.72%
CC(NC(=O)Cn1cc(C(F)(F)F)ccc1=O)c1ccc(F)cc1 (centres undefined)		inactive: 19.6%
O=C(Nc1ccc(F)cc1)Nc1ccc(N2CCCC2)c(S(=O)(=O)Nc2ccccc2Cl)c1	inconclusive: 29.1 µM [activator, single point]	
S=c1[nH]nc(-c2cccc(Cl)c2)n1/N=C/c1ccc(-c2ccccc2Br)o1	inconclusive: 6.51 µM [inhibitor, single point]	
Cc1ccc(S(=O)(=O)C(C#N)c2nc3ccccc3nc2OC(C)C)cc1 (centres undefined)	inconclusive: 29.1 µM [inhibitor, single point]	
COc1ccccc1Nc1nnc(SCC(=O)Nc2cc(C)on2)s1	inconclusive: 18.4 µM [activator, partial curve, poor fit]	
CCCCN(C(=O)CSc1nnc(-c2ccco2)o1)c1c(N)n(Cc2ccccc2)c(=O)[nH]c1=O	inconclusive: 23.1 µM [inhibitor, partial curve, poor fit]	

SMILES	Potency	activity change, negative = inhibition
CCN(CC)C(=O)CCSc1nnc(-c2ccco2)o1	inconclusive: 29.1 µM [activator, single point]	
Fc1cc(F)cc(NC(=S)NN2CCOCC2)c1		inactive: -9.94%
COc1ccc(CNC(=O)/C=C/c2ccc(S(=O)(=O)N3CCOCC3)cc2)cc1	inconclusive: 18.3 µM [inhibitor, partial curve]	
COC(=O)C1=CN(Cc2ccc(OC)cc2)C=C(C(=O)OC)C1c1ccsc1	inconclusive: 29.1 µM [inhibitor, single point]	
COc1ccccc1CC(=O)N(Cc1ccccc1)c1ccc(C)cc1		inactive: -4.67%
CCOc1ccccc1N1CCN(C(=O)C2CSC3(C)CCC(=O)N23)CC1 (centres undefined)		inactive: 6.87%
Cc1nc(SCc2ccccc2C)n[nH]1	inconclusive: 23.1 µM [activator, single point]	
NC(=O)c1nsc(C(=O)N(c2cccc(F)c2)C(C(=O)NCc2ccccc2)c2ccc(O)cc2)c1N (centres undefined)	inconclusive: 32.6 µM [inhibitor, single point]	
CCOCCn1c(CN2CCc3ccccc3C2)nc2c1c(=O)n(C)c(=O)n2C	inconclusive: 29.1 µM [inhibitor, single point]	
COc1ccc(-c2nc(CS(=O)CC(=O)NCc3ccco3)c(C)o2)cc1 (centres undefined)		inactive: -0.361%
O=C(O)CSCC(=O)N1CCc2c([nH]c3ccccc23)C1C(F)(F)F (centres undefined)		inactive: 1.01%
Cc1cccc2sc(NNC(=O)c3ccc(S(=O)(=O)N4CC(C)CC(C)C4)cc3)nc12 (centres undefined)	inconclusive: 23.1 µM [inhibitor, partial curve]	
C=CCn1c(C)cc(C(=O)Cn2c(C(C)O)nc3ccccc32)c1C (centres undefined)	inconclusive: 29.1 µM [inhibitor, single point]	
COc1ccc([N+](=O)[O-])cc1N(CC(O)CN1CCOCC1)S(=O)(=O)c1ccccc1 (centres undefined)		inactive: -5.81%
C#CCn1cnc2c(oc3ccccc32)c1=O	inconclusive: 14.6 µM [activator, partial curve]	
CCOc1ccc(-c2cn3ccccc3n2)cc1	inconclusive: 1.03 µM [activator, partial curve]	
Cc1ccc2nc(-c3ccc(NC(=O)CNC4CC4)cc3)sc2c1	inconclusive: 2.59 µM [activator, full curve]	
CC(=O)c1c(C)[nH]c(C(=O)Nc2ccc(Cl)cc2)c1C	inconclusive: 7.3 µM [activator, partial curve]	
O=C(CN1CCOCC1)Nc1ccc2c(c1)OCCO2	inconclusive: 11.6 µM [activator, partial curve]	
Nc1c(C(=O)Nc2ccc(Cl)c(C(=O)O)c2)sc2nc3c(cc12)CCCC3	inconclusive: 25.9 µM [activator, single point]	
O=C(CCCOc1ccc(Cl)cc1Cl)N/N=C\C1CCCCC1		inactive: -4.87%
Cc1onc(-c2c(F)cccc2Cl)c1C(=O)Nc1nnc(C2CC2)s1		inactive: -29.8%
CCCN(CC(=O)Nc1ccccc1C)C(=O)c1ccc(N2CCCCCC2)c([N+](=O)[O-])c1		inactive: 20.9%
